For this assay, the target named is GFP-tagged Rab-coupling protein (GFP-RCP). Description: affinity purification with mass spectrometry; GFP-RCP (control: GFP) immunoprecipitated with anti-GFP magnetic beads from lysates of transfected A2780 cells; lysis buffer with 0.15% Tween-20, 200 mM NaCl, 75 mM Tris-HCl pH 7; 2 h at 4 °C; SDS-PAGE; MALDI-TOF mass spectrometry.

Results on four molecules are retold here after article PMC5355957.

Results are given in words; binding and its absence hold for the method and conditions named. Binding seen in cells or lysates may run through a third protein. These calls come from enrichment with a bait or labelling near it, and not all partners need be listed.

B1: 5'-nucleotidase (enzyme, UniProt P21589 27-549)
chain: WELTILHTNDVHSRLEQTSEDSSKCVNASRCMGGVARLFTKVQQIRRAEPNVLLLDAGDQYQGTIWFTVYKGAEVAHFMNALRYDAMALGNHEFDNGVEGLIEPLLKEAKFPILSANIKAKGPLASQISGLYLPYKVLPVGDEVVGIVGYTSKETPFLSNPGTNLVFEDEITALQPEVDKLKTLNVNKIIALGHSGFEMDKLIAQKVRGVDVVVGGHSNTFLYTGNPPSKEVPAGKYPFIVTSDDGRKVPVVQAYAFGKYLGYLKIEFDERGNVISSHGNPILLNSSIPEDPSIKADINKWRIKLDNYSTQELGKTIVYLDGSSQSCRFRECNMGNLICDAMINNNLRHTDEMFWNHVSMCILNGGGIRSPIDERNNGTITWENLAAVLPFGGTFDLVQLKGSTLKKAFEHSVHRYGQSTGEFLQVGGIHVVYDLSRKPGDRVVKLDVLCTKCRVPSYDPLKMDEVYKVILPNFLANGGDGFQMIKDELLRHDSGDQDINVVSTYISKMKVIYPAVEGRIKFS
As for B1, the binding entry is on record as “binds”.

B2: Myeloid-associated differentiation marker (protein, UniProt Q96S97 1-322)
chain: MPVTVTRTTITTTTTSSSGLGSPMIVGSPRALTQPLGLLRLLQLVSTCVAFSLVASVGAWTGSMGNWSMFTWCFCFSVTLIILIVELCGLQARFPLSWRNFPITFACYAALFCLSASIIYPTTYVQFLSHGRSRDHAIAATFFSCIACVAYATEVAWTRARPGEITGYMATVPGLLKVLETFVACIIFAFISDPNLYQHQPALEWCVAVYAICFILAAIAILLNLGECTNVLPIPFPSFLSGLALLSVLLYATALVLWPLYQFDEKYGGQPRRSRDVSCSRSHAYYVCAWDRRLAVAILTAINLLAYVADLVHSAHLVFVKV
With B2, the binding result was “binds”.

B3: Peroxisomal multifunctional enzyme type 2 (enzyme, UniProt P51659 1-736)
chain: MGSPLRFDGRVVLVTGAGAGLGRAYALAFAERGALVVVNDLGGDFKGVGKGSLAADKVVEEIRRRGGKAVANYDSVEEGEKVVKTALDAFGRIDVVVNNAGILRDRSFARISDEDWDIIHRVHLRGSFQVTRAAWEHMKKQKYGRIIMTSSASGIYGNFGQANYSAAKLGLLGLANSLAIEGRKSNIHCNTIAPNAGSRMTQTVMPEDLVEALKPEYVAPLVLWLCHESCEENGGLFEVGAGWIGKLRWERTLGAIVRQKNHPMTPEAVKANWKKICDFENASKPQSIQESTGSIIEVLSKIDSEGGVSANHTSRATSTATSGFAGAIGQKLPPFSYAYTELEAIMYALGVGASIKDPKDLKFIYEGSSDFSCLPTFGVIIGQKSMMGGGLAEIPGLSINFAKVLHGEQYLELYKPLPRAGKLKCEAVVADVLDKGSGVVIIMDVYSYSEKELICHNQFSLFLVGSGGFGGKRTSDKVKVAVAIPNRPPDAVLTDTTSLNQAALYRLSGDWNPLHIDPNFASLAGFDKPILHGLCTFGFSARRVLQQFADNDVSRFKAIKARFAKPVYPGQTLQTEMWKEGNRIHFQTKVQETGDIVISNAYVDLAPTSGTSAKTPSEGGKLQSTFVFEEIGRRLKDIGPEVVKKVNAVFEWHITKGGNIGAKWTIDLKSGSGKVYQGPAKGAADTTIILSDEDFMEVVLGKLDPQKAFFSGRLKARGNIMLSQKLQMILKDYAKL
For B3, the binding entry is reported as “binds”.

B4: Rab11-FIP5 (protein, UniProt Q9BXF6 1-653)
chain: MALVRGAEPAAGPSRWLPTHVQVTVLRARGLRGKSSGAGSTSDAYTVIQVGREKYSTSVVEKTHGCPEWREECSFELPPGALDGLLRAQEADAGPAPWAASSAAACELVLTTMHRSLIGVDKFLGQATVALDEVFGAGRAQHTQWYKLHSKPGKKEKERGEIEVTIQFTRNNLSASMFDLSMKDKPRSPFSKIRDKMKGKKKYDLESASAILPSSAIEDPDLGSLGKMGKAKGFFLRNKLRKSSLTQSNTSLGSDSTLSSASGSLAYQGPGAELLTRSPSRSSWLSTEGGRDSAQSPKLFTHKRTYSDEANQMRVAPPRALLDLQGHLDAASRSSLCVNGSHIYNEEPQGPVRHRSSISGSLPSSGSLQAVSSRFSEEGPRSTDDTWPRGSRSNSSSEAVLGQEELSAQAKVLAPGASHPGEEEGARLPEGKPVQVATPIVASSEAVAEKEGARKEERKPRMGLFHHHHQGLSRSELGRRSSLGEKGGPILGASPHHSSSGEEKAKSSWFGLREAKDPTQKPSPHPVKPLSAAPVEGSPDRKQSRSSLSIALSSGLEKLKTVTSGSIQPVTQAPQAGQMVDTKRLKDSAVLDQSAKYYHLTHDELISLLLQRERELSQRDEHVQELESYIDRLLVRIMETSPTLLQIPPGPPK
As to B4, the binding result was “binds”.
